Experimental data from publication PMC4629154.
No constants are given. Whether binding was seen depends on the method and setting. Binding seen in cells or lysates may run through a third protein. Binding calls can cover weak binding; strength is not graded here.

By UniProt entry, the sequences of proteins in these tests, tags left out. Where a name states a change or a piece, a line headed by the entry shows the natural chain unless it says otherwise.
UniProt P63158: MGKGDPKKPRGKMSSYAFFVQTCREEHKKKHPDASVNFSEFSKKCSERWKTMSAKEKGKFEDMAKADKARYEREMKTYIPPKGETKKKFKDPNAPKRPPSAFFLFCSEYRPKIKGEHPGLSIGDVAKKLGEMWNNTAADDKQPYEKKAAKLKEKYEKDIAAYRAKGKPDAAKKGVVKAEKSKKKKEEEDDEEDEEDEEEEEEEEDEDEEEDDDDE
UniProt O14980: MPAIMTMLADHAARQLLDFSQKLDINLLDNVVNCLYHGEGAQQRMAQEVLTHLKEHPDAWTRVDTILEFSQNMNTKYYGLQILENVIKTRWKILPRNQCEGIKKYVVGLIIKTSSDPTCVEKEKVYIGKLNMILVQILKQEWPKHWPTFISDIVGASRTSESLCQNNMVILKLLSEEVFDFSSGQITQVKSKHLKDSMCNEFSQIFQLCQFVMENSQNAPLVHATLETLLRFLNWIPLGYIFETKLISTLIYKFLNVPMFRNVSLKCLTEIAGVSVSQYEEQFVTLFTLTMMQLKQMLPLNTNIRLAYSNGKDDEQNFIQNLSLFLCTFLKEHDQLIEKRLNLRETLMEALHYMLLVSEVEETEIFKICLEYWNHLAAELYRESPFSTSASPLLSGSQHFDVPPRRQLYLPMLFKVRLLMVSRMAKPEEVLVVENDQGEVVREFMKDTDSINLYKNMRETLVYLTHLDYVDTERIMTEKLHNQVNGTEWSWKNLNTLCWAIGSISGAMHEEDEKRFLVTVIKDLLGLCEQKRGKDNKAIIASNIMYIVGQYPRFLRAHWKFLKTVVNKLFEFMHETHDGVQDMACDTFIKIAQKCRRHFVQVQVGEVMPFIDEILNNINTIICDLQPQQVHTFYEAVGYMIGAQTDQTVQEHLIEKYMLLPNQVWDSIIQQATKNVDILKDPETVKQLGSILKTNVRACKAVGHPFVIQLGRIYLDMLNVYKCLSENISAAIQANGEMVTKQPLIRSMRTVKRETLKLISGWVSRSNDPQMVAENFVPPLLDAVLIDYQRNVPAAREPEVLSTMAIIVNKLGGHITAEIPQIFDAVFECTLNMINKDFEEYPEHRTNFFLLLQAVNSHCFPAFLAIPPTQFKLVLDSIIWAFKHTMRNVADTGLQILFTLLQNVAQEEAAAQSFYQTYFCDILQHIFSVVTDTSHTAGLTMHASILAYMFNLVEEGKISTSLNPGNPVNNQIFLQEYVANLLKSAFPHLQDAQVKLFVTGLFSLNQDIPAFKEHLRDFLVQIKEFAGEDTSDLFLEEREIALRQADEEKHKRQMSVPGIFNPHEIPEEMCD

Target: Flag-HMGB1 K282930Q (hyper-acetylation mutant) (mouse) (UniProt P63158)
Assay: co-IP; HEK293T cells co-transfected for 48 h; whole-cell lysates (PRO-PREP), pre-cleared; anti-Flag antibody (1 ug) overnight at 4 °C, protein G Sepharose 4 h; immunoblot; in some panels cells treated with LPS, TNF-α, Poly (I:C), IFN-γ, resveratrol or sirtinol, or co-transfected with HA-PCAF

- binding: binds
Substance: HA-tagged chromosome region maintenance 1 (CRM1) (from UniProt O14980 1-1071)
